No constants are given. Whether binding was seen depends on the method and setting. Some entries that bind do so weakly or less than the wild type.
T1: human IFN-gamma (human, UniProt P01579 24-166)
T1 sequence (looked up): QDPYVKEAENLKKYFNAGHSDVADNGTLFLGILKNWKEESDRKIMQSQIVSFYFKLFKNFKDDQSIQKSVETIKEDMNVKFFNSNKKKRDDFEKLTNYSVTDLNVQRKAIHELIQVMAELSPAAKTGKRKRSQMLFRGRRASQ


Legend:
human IFN-gamma [1] = target: T1, human IFN-gamma; experiment: ELISA on human IFN-γ, Tx-114 treated and untreated purified VHH
human IFN-gamma [2] = target: T1, human IFN-gamma; experiment: ELISA screening of selected clones on human IFN-γ (Examples 7 and 8)

Row | Binder | binding (human IFN-gamma [1]) | binding (human IFN-gamma [2])
1 | MP2F6SR (VHH) VHH: QVKLEESGGGLVQAGGSLRLSCAASGRTFNNYNMGWFRQAPGKEREFVAAISWNGGSTYYDDSVKGRFTISRDNANNLVYLQMNSLNFEDTAVYYCACAANPYGIPQYRENRYDFWGQGTQVTVSS | binds | binds
2 | MP3D1BR (VHH) VHH: QVQLQESGGGLVQAGGSLRLSCAASGRTFDNYNMGWFRQAPGKEREFVAAISWNGGSTYYDDSVKGRFTISRDNFQKLVYLQMNSLKLEDTAVYYCACAANPYGIPQYRENRYDFWGQGTQVTVSS |  | binds
3 | MP3C7SRA (VHH) VHH: QVQLQESGGGLVQAGDSLRLSCAASGRSFSSYGMGWFRQAPGKEHEFVAGIWRSGVSLYYADSVKGRFTISRDDAKMTVSLQMNSLKPEDTAVYYCAAEATFPTWNRGRFADYDYSGQGTQVTVSS | binds | binds
4 | MP2C1BR (VHH) VHH: QVKLEESGGRLVQAGGSLRLSCIASGRTISDYAAGWFRQAPGKEREFLASVSWGFGSTYYADSVKGRFTISRDTAKDTVYLQMNTLEPDDTSVYYCASSPRYCAGYRCYATASEFDSWGQGTQVTVSS |  | binds
5 | MP3D2BR (VHH) VHH: QVQLQESGGGLVQPGESLRLSCAASRGIFRFNAGGWYRQAPGKQRELVAFIGVDNTTRYIDSVKGRFTISRDNAKTTVYLQMNSLQPEDTAVYYCNKVPYIDWGQGTQVTVSS | binds | binds
6 | MP3B1SRA (VHH) VHH: QVQLQESGGGLVQPGGSLRLSCAASGFTSSNYAMSWVRQAPGKGLEWVSSINSRTGSITYADSVKGRFTITLDNAKNTLYLQMNSLKPEDTAVYYCASRVDDRVSRGQGTQVTVSS | binds | binds
7 | MP2F1BR (VHH) VHH: AVQLVESGGGLVQTGDSLRLSCVASGGTFSRYAMGWFRQAPGKEREFVARIGYSGRSISYATSVEGRFAISRDNAKNTVYLQMNSLKPEDTAVYYCASLVSGTLYQADYWGQGTQVTVSS | binds | binds
8 | MP2C5BR (VHH) VHH: QVQLVESGGGLVQTGDSLRLSCVASGGTFSRYAMGWFRQPPGKERDFVARIGYSGQSISYATSVEGRFAISRDNAKNTVYLQMNSLKPEDTAVYYCASLVSGTLYKPNYWGQGTQVTVSS |  | binds
9 | MP3C5SR (VHH) VHH: QVQLQESGGGLVQAGGSLRLSCAAAGISGSVFSRTPMGWYRQAPGKQRELVAGILTSGATSYAESVKGRFTISRDNAKNTVYLQMNSLSPEDTAEYYCNTYPTWVLSWGQGTQVTVSS |  | binds
10 | MP3C1SR (VHH) VHH: QVQLQDSGGGLVQAGGSLRLSCAAAGISGSVFSRTPMGWYRQAPGKQRELVAGILSSGATVYAESVKGRFTISRDNAKNTVYLQMNSLSPEDTAEYYCNTYPTWVLSWGQGTQVTVSS | binds | binds
11 | MP2F10SR (VHH) VHH: QVQLVESGGGLVQAGGSLRLSCAASGRTISSFRMGWFRRAPGEEREFVAFVRSNGTSTYYADSVEGRFTITRDNAKNTVYLRMDSLKPEDTAVYYCAAATRDYGGSFDYWGQGTQVTVSS |  | binds
12 | MP3A7SRA (VHH) VHH: QVQLQDSGGGLVQAGGSLRLSCAASGRTFSSFRMGWFRRAPGEEREFVAFVRSNGTSTYYADSVEGRFTITRDNAKNTVYLRMDSLKPEDTAVYYCAAATRDYGGSFDYWGQGTQVIVSS | binds | binds

Further lines, results first:

Row | binding (human IFN-gamma [1]) | binding (human IFN-gamma [2]) | Binder
13 |  | binds | MP3F4SRA (VHH) VHH: QVQLQDSGGGLVQAGDSLRLSCAASGRSFSSYGMGWFRQAPGKEHEFVAGIWRSGVSLYYTDSVKGRFTISRDDAKMTVSLQMNSLKPEDTAVYYCAAEATFPTWSRGRFADYDYRGQGTQVTVSS
14 |  | binds | MP3D3BR (VHH) VHH: QVQLQESGGGLVQAGDSLRLSCTASGRSFSSYGMGWFRQAPGKDHEFVAGIWRSGVSLYYADSVKGRFTISRDDAKMTVSLQMNGLKPEDTAVYYCAAEATFPTWNRGTFADYDYRGQGTQVTVSS
15 |  | binds | MP3E5BR (VHH) VHH: QVQLQESGGGLVQAGDSLRLSCAASGRSFSSYGMGWFRQAPGKEHEFVAGIWRSGVSLYYADSVKGRFTISRDDAKMTVSLQMNGLKPEDTAVYYCAAEATFPTWNRGSFADYDYRGQGTQVTVSS
16 | binds | binds | MP3F1SRA (VHH) VHH: QVQLQESGGGLVQAGGSLTLSCVASGRTISDYAVGWFRQAPGKEREFVASISWGGGFTAFADSMKGRFTISRDNAKNTVYLQTHTLEPDDTSVYYCASSRRYCTGYRCYATASEFDSWGQGTQVTVSS
17 |  | binds | MP4A12SR (VHH) VHH: QVQLQESGGRLVQAGGSLRLSCIASGRTISDYAAGWFRQAPGKEREFLASVTWGFGSTYYADSVKGRFTISRDKAKDTVYLQMNTLEPDDTSAYYCASSPRYCAGYRCYVTASEFDSWGPGTQVTVSS
18 |  | binds | MP3D2SRA (VHH) VHH: QVQLQDSGGGTVQAGGSLRLSCAASGRTFSDYAVGWFRQAPGKEREFVARILWTGASRSYANSVDGRFTVSTDNAKNTVYLQMNSLKPEDTAIYYCAALPSNIITTDYLRVYYWGQGTQVTVSS
19 | binds | binds | MP4C10SR (VHH) VHH: QVQLQESGGGLVQPGGSLRLSCAASGFTVSNYAMSWVRQPPGKGIEWVSSINNRNDHITYADSVKGRFTIARDNANNILYLQMNSLKPEDTAVYYCASRVDDRVSRGQGTQVTVSS
20 |  | binds | MP3G8SR (VHH) VHH: QVQLQESGGGLVQAGGSLRLSCAAAGISGSVFSRTPMGWYRQAPGKQRELVAGILSSGATAYAESVKGRFTISRDNAKNTVYLQMNSLSPEDTAEYYCNTYPTWVLSWGQGTQVTVSS
21 |  | binds | MP4E4BR (VHH) VHH: QVQLQESGGGLVQAGGSLRLSCAASGRTFSIYNMGWFRQAPGKEREFVAAISWNGGSIYYTSSVEGRFTISRDNAINTVYLQMNSLKPEDTGVYYCASKGRPYGVPSPRQGEYDYWGQGTQVTVSS

From patent publication US20060034833A1 (published 2006)
